Measurements reported in publication PMC9806564.
No constants are given. Whether binding was seen depends on the method and setting. In cells and extracts the contact can be indirect. Some binding calls cover weakened binding; strength is not graded here. For some of these results: Tags and fused reporters may be left off the sequences shown.

Amino acid sequences for entries named in this document (tags omitted).
UniProt Q9C9W9: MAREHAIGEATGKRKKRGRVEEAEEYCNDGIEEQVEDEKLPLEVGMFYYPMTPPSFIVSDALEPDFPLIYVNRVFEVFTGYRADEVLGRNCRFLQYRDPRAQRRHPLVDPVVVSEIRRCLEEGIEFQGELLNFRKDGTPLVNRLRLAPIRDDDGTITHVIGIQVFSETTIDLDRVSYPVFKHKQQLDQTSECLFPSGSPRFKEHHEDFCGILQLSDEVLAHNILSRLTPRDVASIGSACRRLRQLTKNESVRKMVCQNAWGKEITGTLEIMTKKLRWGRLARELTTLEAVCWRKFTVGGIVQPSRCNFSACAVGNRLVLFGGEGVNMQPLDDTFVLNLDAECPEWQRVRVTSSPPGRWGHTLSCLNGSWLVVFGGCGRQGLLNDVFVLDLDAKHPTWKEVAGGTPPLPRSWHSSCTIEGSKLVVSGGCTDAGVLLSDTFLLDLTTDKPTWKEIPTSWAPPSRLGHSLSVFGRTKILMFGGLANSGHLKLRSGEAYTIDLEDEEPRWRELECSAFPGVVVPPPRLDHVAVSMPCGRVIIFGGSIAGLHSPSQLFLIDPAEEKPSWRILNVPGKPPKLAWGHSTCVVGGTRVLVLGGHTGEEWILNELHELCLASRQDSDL

How the values were obtained:
[1] = biological target: T1, GIGANTEA, HA-tagged (GI-HA) (Arabidopsis thaliana) (UniProt Q9SQI2); assay: co-IP; total proteins of N. benthamiana leaves transiently expressing both proteins; GI-HA precipitated with anti-HA on protein A agarose, SOS3 detected with anti-MYC; leaves untreated or treated with 100 mM NaCl for 8 h or 3 mM CaCl2; extraction buffer 100 mM Tris-HCl pH 7.5, 150 mM NaCl, 0.5% NP-40, 1 mM EDTA, 3 mM DTT; 4°C
T1 sequence: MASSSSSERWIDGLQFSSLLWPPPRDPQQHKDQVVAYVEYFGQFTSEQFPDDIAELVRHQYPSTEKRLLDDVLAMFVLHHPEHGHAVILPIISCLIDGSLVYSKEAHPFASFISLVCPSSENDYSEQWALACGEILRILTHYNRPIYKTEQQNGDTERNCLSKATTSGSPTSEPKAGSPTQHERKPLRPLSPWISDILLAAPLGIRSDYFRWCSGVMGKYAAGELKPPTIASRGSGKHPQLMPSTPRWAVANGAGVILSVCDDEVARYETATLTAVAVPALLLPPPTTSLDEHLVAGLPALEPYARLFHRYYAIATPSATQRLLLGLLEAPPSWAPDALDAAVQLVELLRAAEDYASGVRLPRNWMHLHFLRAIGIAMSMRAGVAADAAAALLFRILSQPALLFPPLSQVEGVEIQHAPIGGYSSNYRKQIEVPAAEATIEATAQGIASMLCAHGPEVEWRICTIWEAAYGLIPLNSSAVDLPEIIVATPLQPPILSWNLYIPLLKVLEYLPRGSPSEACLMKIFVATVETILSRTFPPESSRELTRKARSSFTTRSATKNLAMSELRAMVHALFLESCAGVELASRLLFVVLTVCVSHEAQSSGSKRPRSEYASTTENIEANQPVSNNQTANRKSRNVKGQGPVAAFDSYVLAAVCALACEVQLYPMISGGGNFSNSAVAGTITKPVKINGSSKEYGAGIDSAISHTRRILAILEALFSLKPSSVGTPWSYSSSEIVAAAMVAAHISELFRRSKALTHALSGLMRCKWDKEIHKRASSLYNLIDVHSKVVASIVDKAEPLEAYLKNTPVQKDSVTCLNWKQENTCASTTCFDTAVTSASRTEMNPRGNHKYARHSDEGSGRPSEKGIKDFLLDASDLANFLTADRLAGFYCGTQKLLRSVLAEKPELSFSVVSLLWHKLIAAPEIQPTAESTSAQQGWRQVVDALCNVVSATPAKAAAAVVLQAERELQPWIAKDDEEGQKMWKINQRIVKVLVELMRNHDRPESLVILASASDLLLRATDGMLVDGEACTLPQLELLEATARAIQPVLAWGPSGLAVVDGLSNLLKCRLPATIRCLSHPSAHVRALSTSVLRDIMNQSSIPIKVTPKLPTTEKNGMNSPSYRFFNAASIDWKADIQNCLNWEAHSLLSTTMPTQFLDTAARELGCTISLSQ

[2] = biological target: T2, GIGANTEA, BiFC fusion (Arabidopsis thaliana) (UniProt Q9SQI2); assay: split reporter; BiFC in N. benthamiana leaves, transient expression, YFP signals under a confocal microscope; leaves untreated or treated with NaCl or Ca2+ (Supplemental Figure S6, Figure 6D, Supplemental Figure S10)
T2 sequence: T1 sequence

[3] = biological target: T3, SOS2/CIPK24, BiFC fusion (Arabidopsis thaliana) (UniProt Q9LDI3); assay: as above
T3 sequence: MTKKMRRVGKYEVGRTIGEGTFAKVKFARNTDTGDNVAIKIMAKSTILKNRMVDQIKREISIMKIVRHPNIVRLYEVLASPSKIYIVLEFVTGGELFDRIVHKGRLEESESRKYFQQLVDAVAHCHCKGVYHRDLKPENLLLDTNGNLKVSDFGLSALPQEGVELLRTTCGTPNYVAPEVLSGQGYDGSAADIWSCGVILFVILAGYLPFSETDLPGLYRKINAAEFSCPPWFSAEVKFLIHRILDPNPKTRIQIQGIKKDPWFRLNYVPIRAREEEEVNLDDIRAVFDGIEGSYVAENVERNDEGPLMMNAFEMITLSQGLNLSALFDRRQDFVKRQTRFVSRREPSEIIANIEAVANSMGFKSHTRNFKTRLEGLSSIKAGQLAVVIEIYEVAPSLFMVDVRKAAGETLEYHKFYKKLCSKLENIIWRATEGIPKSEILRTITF

[4] = biological target: FKF1, split-Venus BiFC fusion (Arabidopsis thaliana) (UniProt Q9C9W9); assay: split reporter; BiFC with split Venus in N. benthamiana leaves; fluorescence detected on the third day after infiltration
[5] = biological target: SOS3-FLAG (Arabidopsis thaliana) (UniProt O81223); assay: co-IP; total proteins of N. benthamiana leaves transiently co-expressing SOS3-FLAG with GI-HA and/or FKF1-MYC; immunoprecipitation with anti-FLAG; leaves untreated or treated with 100 mM NaCl for 8 h
[6] = biological target: SOS3-G2A-GFP (Arabidopsis thaliana) (UniProt O81223); assay: co-IP; total proteins of N. benthamiana leaves transiently co-expressing GI-HA and GFP-tagged SOS3 proteins; immunoprecipitation with anti-GFP
[7] = biological target: SOS3-GFP (Arabidopsis thaliana) (UniProt O81223); assay: as above
[8] = biological target: SOS3-C3A-GFP (Arabidopsis thaliana) (UniProt O81223); assay: as above

SALT OVERLY …3/CALCINEURIN B-LIKE4, MYC-tagged (SOS3-MYC) (from UniProt O81223 1-222)
binding [1]: binds

SOS3-C3A, BiFC fusion (from UniProt O81223 1-222)
binding [2]: binds | binding [3]: binds

SOS3-G2A, BiFC fusion (from UniProt O81223 1-222)
binding [2]: binds | binding [3]: binds

SOS3, split-Venus BiFC fusion (used with FKF1) (from UniProt O81223 1-222)
binding [4]: binds

SOS3, BiFC fusion (used with GI and SOS2) (from UniProt O81223 1-222)
binding [2]: binds | binding [3]: binds

FLAVIN-BINDING, KELCH REPEAT, F-BOX1, MYC-tagged (FKF1-MYC) (from UniProt Q9C9W9 1-619)
binding [5]: binds

B1: GIGANTEA, HA-tagged (GI-HA) (protein, UniProt Q9SQI2 1-1173)
chain: T1 sequence
binding [6]: binds | binding [7]: binds | binding [8]: binds | binding [5]: binds
